Reference: PMC12431657, “Discovery and mechanistic insights of dibenzoylmethane as a broad spectrum inhibitor of coronavirus” (PLOS Pathogens, 2025)
Like-named read-outs stand apart in the source and are kept apart here. Out of some 3,300 compounds screened, about 60 (2%) showed an effect of 50% or more. The list shows a part of the results.

Test system: HCoV-OC43
Set-up: species or system RD; HTS, protection from HCoV-OC43 induced cell death, luminescent cell viability (CellCounting-Lite 2.0), inhibition rate
Conditions: 24 h post infection, 1 h compound pre-incubation, 10 µM, inhibitor

Structure (SMILES): CCCCC[C@H](O)/C=C/[C@@H]1[C@@H](C/C=C\CCCC(=O)O)[C@@H](O)C[C@H]1O [Dinoprost]
- OC43 Inhibition rate: 4%

Structure (SMILES): COC(=S)NCc1ccc(O[C@@H]2O[C@@H](C)[C@H](O)[C@@H](O)[C@H]2O)cc1 [Niazinin]
- OC43 Inhibition rate: 0.7%

Structure (SMILES): C[C@@H](CO)CCC[C@@H](C)[C@H]1CC[C@H]2[C@@H]3CC=C4C[C@@H](O)CC[C@]4(C)[C@H]3CC[C@]12C [27-Hydroxycholesterol]
- OC43 Inhibition rate: 0%

Structure (SMILES): O=c1c2cc(O[C@@H]3O[C@H](CO)[C@@H](O)[C@H](O)[C@H]3O)c(O)cc2oc2cc(O)c([C@@H]3O[C@H](CO)[C@@H](O)[C@H](O)[C@H]3O)c(O)c12 [Neomangiferin]
- OC43 Inhibition rate: 3%

Structure (SMILES): C[N+](C)(C)CCOP(=O)(O)OP(=O)([O-])OC[C@H]1O[C@@H](n2ccc(N)nc2=O)[C@H](O)[C@@H]1O [Citicoline]
- OC43 Inhibition rate (OC43 Inhibition rate, 24 h): -2.5%

Structure (SMILES): CC(=O)Oc1cccc2c1C(=O)c1c(OC(C)=O)cc(C(=O)O)cc1C2=O [Diacerein]
- OC43 Inhibition rate: 15.7%

Structure (SMILES): CCCCCCCCCCCCCC(=O)OC [Methyl myristate]
- OC43 Inhibition rate: -5.4%

Structure (SMILES): CCCCC/C=C\C/C=C\CCCCCCCC(=O)OC [Methyl linoleate]
- OC43 Inhibition rate: -1%

Structure (SMILES): NCCCN(CCCCNCCCNC(=O)CCc1ccc(O)c(O)c1)C(=O)CCc1ccc(O)c(O)c1 [Kukoamine B]
- OC43 Inhibition rate: -0.1%

Structure (SMILES): CCCCC/C=C\CCCCCCc1cc(=O)c2ccccc2n1C [Evocarpine]
- OC43 Inhibition rate: 18.7%

Structure (SMILES): CCC/C=C/C=O [Trans-2-Hexenal]
- OC43 Inhibition rate: -0.7%

Structure (SMILES): O=C(O)C1CCN1 (stereo not shown) [Azetidine-2-carboxylic acid]
- OC43 Inhibition rate: -6.6%

Structure (SMILES): COc1ccc2c(c1OC)CN(C)c1c-2ccc2cc3c(cc12)OCO3 [Dihydrochelerythrine]
- OC43 Inhibition rate: 1.4%

Structure (SMILES): C[C@H](CCC(=O)NCCS(=O)(=O)O)[C@H]1CC[C@H]2[C@@H]3[C@H](O)C[C@@H]4C[C@H](O)CC[C@]4(C)[C@H]3CC[C@]12C [Taurochenodeoxycholic acid (sodium)]
- OC43 Inhibition rate (OC43 Inhibition rate, 24 h): 0.2%

Structure (SMILES): COC(=O)C1=CO[C@@H](O[C@@H]2O[C@H](CO)[C@@H](O)[C@H](O)[C@H]2O)[C@@H]2[C@@H](C)[C@@H](O)C[C@H]12 [Loganin]
- OC43 Inhibition rate: 0.6%

Structure (SMILES): C/C=C/c1cc(OC)c2c(c1)C(C)C(c1ccc(O)c(OC)c1)O2 (stereo not shown) [Dehydrodiisoeugenol]
- OC43 Inhibition rate: 1.2%

Structure (SMILES): COc1cc(/C=C/C(=O)O)cc(OC)c1OC [3,4,5-Trimethoxycinnamic acid]
- OC43 Inhibition rate: 0.3%

Structure (SMILES): C=C(C)[C@@H]1CC=C(CO)CC1 [Perillyl alcohol]
- OC43 Inhibition rate (OC43 Inhibition rate, 24 h): 0.1%

Structure (SMILES): OC[C@H]1O[C@@H](Oc2ccc(O)cc2)[C@H](O)[C@@H](O)[C@@H]1O [Arbutin]
- OC43 Inhibition rate: -0.2%

Structure (SMILES): O=c1ccn([C@H]2C[C@H](O)[C@@H](COP(=O)(O)O)O2)c(=O)[nH]1 [2'-Deoxyuridine 5'-monophosphate (disodium)]
- OC43 Inhibition rate: 1%

Structure (SMILES): CCCCCC/C=C\CCCCCCCCCc1cccc(O)c1C(=O)O [Ginkgolic acid C17:1]
- OC43 Inhibition rate: -3.3%

Structure (SMILES): COc1ccc(C[C@@H]2c3cc(Oc4cc(C[C@@H]5c6cc(O)c(OC)cc6CCN5C)ccc4O)c(OC)cc3CCN2C)cc1 [Isoliensinine]
- OC43 Inhibition rate: 30.7%

Structure (SMILES): OC[C@H]1OC(O)[C@@H](O)[C@@H](O)[C@@H]1O (stereo partly drawn) [D-Mannose]
- OC43 Inhibition rate: 3.4%

Structure (SMILES): COc1ccc(OC)cc1 [1,4-Dimethoxybenzene]
- OC43 Inhibition rate: 0.9%

Structure (SMILES): COc1cc(C)ccc1O [Creosol]
- OC43 Inhibition rate: 0.5%

Structure (SMILES): O=c1c(-c2ccc(O)cc2)coc2cc(O[C@@H]3O[C@H](CO)[C@@H](O)[C@H](O)[C@H]3O)cc(O)c12 [Genistin]
- OC43 Inhibition rate: 1.6%

Structure (SMILES): Nc1ccc(C(=O)NCC(=O)O)cc1 [4-Aminohippuric acid]
- OC43 Inhibition rate: -0.5%

Structure (SMILES): C[C@]12CC[C@@H]3c4ccc(OS(=O)(=O)O)cc4CC[C@H]3[C@@H]1CCC2=O [Estropipate]
- OC43 Inhibition rate (OC43 Inhibition rate, 24 h): 1.4%

Structure (SMILES): CC(=O)[C@H]1CC[C@H]2[C@@H]3CC[C@H]4CC(=O)CC[C@]4(C)[C@H]3CC[C@]12C [5a-Pregnane-3,20-dione]
- OC43 Inhibition rate: 7.4%

Structure (SMILES): Cn1cncc1C[C@H](N)C(=O)O [3-Methyl-L-histidine]
- OC43 Inhibition rate: -5.7%

Structure (SMILES): CO[C@@H]1[C@@H](OC(N)=O)[C@@H](O)[C@H](Oc2ccc3c(O)c(NC(=O)c4ccc(O)c(CC=C(C)C)c4)c(=O)oc3c2C)OC1(C)C [Novobiocin (sodium)]
- OC43 Inhibition rate: 7.5%
